# Results of single-concentration screens

Amino acid sequences for entries named in this document (tags omitted). Residues count along the entry.
UniProt Q4DA54, 1-478: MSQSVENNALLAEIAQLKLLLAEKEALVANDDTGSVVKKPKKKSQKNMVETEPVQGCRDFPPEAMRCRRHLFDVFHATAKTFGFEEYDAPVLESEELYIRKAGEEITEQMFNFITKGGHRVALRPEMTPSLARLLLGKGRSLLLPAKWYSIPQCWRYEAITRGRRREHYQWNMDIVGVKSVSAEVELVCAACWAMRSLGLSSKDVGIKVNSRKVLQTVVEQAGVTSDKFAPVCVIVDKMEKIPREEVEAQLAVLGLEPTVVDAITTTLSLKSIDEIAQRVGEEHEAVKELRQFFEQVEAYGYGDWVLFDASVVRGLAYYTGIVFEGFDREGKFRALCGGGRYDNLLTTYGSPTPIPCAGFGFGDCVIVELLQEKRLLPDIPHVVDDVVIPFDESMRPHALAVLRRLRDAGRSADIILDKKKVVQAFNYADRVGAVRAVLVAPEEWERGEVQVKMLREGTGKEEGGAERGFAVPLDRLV
UniProt Q8IDJ8, 1-583: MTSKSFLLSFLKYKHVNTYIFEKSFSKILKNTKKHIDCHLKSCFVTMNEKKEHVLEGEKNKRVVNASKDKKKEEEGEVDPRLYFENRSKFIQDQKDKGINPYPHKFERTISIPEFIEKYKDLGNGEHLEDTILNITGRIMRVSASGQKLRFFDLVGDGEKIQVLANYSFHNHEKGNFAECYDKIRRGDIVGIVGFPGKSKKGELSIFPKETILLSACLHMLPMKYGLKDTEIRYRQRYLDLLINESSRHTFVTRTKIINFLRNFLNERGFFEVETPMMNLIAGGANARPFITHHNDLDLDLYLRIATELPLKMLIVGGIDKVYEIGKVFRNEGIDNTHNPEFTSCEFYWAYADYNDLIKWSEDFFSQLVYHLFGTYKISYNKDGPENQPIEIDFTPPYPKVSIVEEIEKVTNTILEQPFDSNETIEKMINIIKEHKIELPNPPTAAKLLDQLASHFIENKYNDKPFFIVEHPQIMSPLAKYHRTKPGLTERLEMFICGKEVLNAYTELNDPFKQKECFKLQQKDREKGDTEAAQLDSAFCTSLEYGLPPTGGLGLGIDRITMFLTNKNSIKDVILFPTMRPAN

From ChEMBL document CHEMBL3988442, “University of Dundee, Small-Polar-MMV Screening Library” (2021).

TcHisRS: 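Histidine-tRNA ligase, Trypanosoma cruzi CL Brener (UniProt Q4DA54). Enzyme assay of histidyl-tRNA synthetase; the read-out is not stated. Concentration: 30 µM. Direction is inferred from retests: higher values go with stronger inhibition. About 69,000 compounds were tested under these conditions; 0.045% (about 31) showed 50% or more at least once.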
PfKRS1: 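Lysine-tRNA ligase, Plasmodium falciparum 3D7 (UniProt Q8IDJ8). Enzyme assay of the cytosolic lysyl-tRNA synthetase in 384-well plates, read by luminescence. Concentration: 30 µM. Direction is inferred from only a few compounds that gave an IC50; most scored high, so higher reads as stronger inhibition. Of about 69,000 compounds tested this way, about 49 (0.071%) reached 50% or more in at least one test.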

Each number is a percent effect as filed. The controls that fix the scale are not given in the record; negative values are as filed. The compounds are a random part of those screened.

| Compound | TcHisRS | PfKRS1 |
|---|---|---|
| `COC(=O)C(C)(C)C(C)(C)NC(=O)Nc1nnc(-c2ccccn2)s1` | 5.844 | 2.748 |
| `COC(=O)c1ccccc1S(=O)(=O)NC(=O)c1cccc2c1OCCO2` | 0.6135 | -2.186 |
| `O=C(Nc1cc(Cl)ccc1Cl)NC1CCN(C2CCOC2)CC1` (centres undefined) | 4.902 | 2.397 |
| `COc1cccc2c1OCCCN(Cc1ncccc1C(=O)O)C2` | 4.433 | 2.969 |
| `O=C(NCCO)c1cc(-c2ccc3c(c2)CCO3)n[nH]1` | -4.094 | -0.4364 |
| `CN1CCN(C(=O)C2CC=CC2)c2ccccc21` | 0.5236 | -2.329 |
| `CNc1ncc2c(n1)CN(c1cccc(OC)c1)C2=O` | 0 | 1.134 |
| `Cc1cccnc1C(=O)N1CCCC(c2[nH]ncc2S(C)(=O)=O)C1` (centres undefined) | 5.376 | -3.336 |
| `Oc1nc(C2CCN(Cc3ccccn3)CC2)cc2ccccc12` | -4.615 | -1.162 |
| `O=C(N1CCCC(n2cncn2)C1)C1(c2cccc(F)c2)CCCC1` (centres undefined) | 2.312 | -2.586 |
| `Cc1cc(=O)[nH]c(SC(C)C(=O)N2CCC(c3ncc[nH]3)CC2)n1` (centres undefined) | 7.65 | 1.512 |
| `Cc1csc(Nc2cc(C3CCCCN3C)nc(C)n2)n1` (centres undefined) | 2.732 | 6.852 |
| `Cc1nnsc1C(=O)N1CCC(c2nc3ccccc3[nH]2)CC1` | 10.31 | -1.006 |
| `Cn1c(C(N)=O)cc2c1CN(C(=O)C1CC(=O)N(C(C)(C)C)C1)CC2` (centres undefined) | 0 | 1.512 |
| `Cc1ncsc1C(=O)N1CCCC(n2cncn2)C1` (centres undefined) | 3.725 | 1.612 |
| `Cc1csc(C(C)(C)NCC(=O)N2CCCC(C(F)(F)F)C2)n1` (centres undefined) | 0.5348 | 0.1243 |
| `CN(CCc1ccccc1)c1cnn(CC2COCCO2)c(=O)c1` (centres undefined) | 7.143 | 7.441 |
| `COc1cc(CNc2nc(N3CCOCC3)ns2)cc(OC)c1OC` | 18.33 | 5.231 |
| `Cn1ccc(C2CCCCN2C(=O)c2cccc(-n3cccn3)c2)n1` (centres undefined) | -2.89 | 0.55 |
| `CNC(=O)[C@@H]1C[C@H]2CN(C(=O)c3ccco3)C[C@H]2N1C` | 9.189 | 4.936 |
| `N[C@H]1CC[C@@H](CN2CCCn3nc(CNC(=O)C4CCC4)cc3C2)CC1` | -4.523 | 4.204 |
| `Fc1ccc(-c2nnc(CNC3CCc4ncnn4C3)o2)cc1` (centres undefined) | 4.762 | 4.381 |
| `COc1cccc(CCC(=O)Nc2c(C)nn(C)c2C)c1OC` | -0.8696 | 6.956 |
| `CCNc1nc(C)c(C(=O)N2CCN(c3ncccc3C)CC2)s1` | 6.061 | 2.358 |
| `CCOc1ccccc1C(=O)N1CCCC(c2nccn2CCOC)C1` (centres undefined) | 8.911 | 2.621 |
| `CCCN(Cc1ccccc1C)C(CC)CO` (centres undefined) | 0.5405 | -2.652 |
| `O=C(c1sccc1-n1cnnn1)N1CCC2(CCCCC2)CC1` | -0.5525 | -0.07747 |
| `O=C1CCCN1CC1CCCCN1C(=O)Nc1cccc(F)c1` (centres undefined) | 9.244 | 1.607 |
| `Cc1ccc(CN(C(=O)NCC(c2cccs2)N(C)C)C2CC2)o1` (centres undefined) | 2.597 | 2.736 |
| `NC(=O)c1cnc(NC2CC2)nc1CCNC(=O)CC1CCCC1` | 3.077 | 5.928 |
| `COCc1nc2ncc3c(=O)n(-c4cccc(OC)c4)ccc3n2n1` | -1.01 | -4.67 |
| `CNC(=O)COC1COC2(CCN(Cc3cccnc3OC)CC2)C1` (centres undefined) | 4.444 | 2.074 |
| `c1ccc2c(c1)CCN(c1nc(-c3ccncc3)nc3c1CCNC3)C2` | 29.79 | 0.6317 |
| `COc1coc(CN2CCCC3(CCC(=O)N(CC4CC4)C3)C2)cc1=O` (centres undefined) | 5.455 | 1.535 |
| `CCCS(=O)(=O)CCN1CCOC(c2ccsc2)C1` (centres undefined) | 0.9804 | 3.293 |
| `COc1cccc2ccc(N3CCC(O)(c4ccc(C)cn4)CC3)nc12` | 5.473 | 1.342 |
| `CC(=O)N1CCOC2(CCCN(C(=O)CCN3CCCCC3)C2)C1` (centres undefined) | 5.825 | 5.988 |
| `Cn1ccnc1CN1CCCC(CCc2ccc(F)c(F)c2)C1` (centres undefined) | 4.372 | 3.992 |
| `CCOC(C)C(=O)NS(=O)(=O)c1cccc2cc(C)cnc12` (centres undefined) | 1.622 | 4.268 |
| `Cc1nn(C)c(N(C)C)c1CNCCCNS(C)(=O)=O` | 7.918 | 2.215 |
| `Cc1nccn1CCN(C)c1nc(-c2ccc(Cl)cc2)nc2c1CNC2` | 0.9804 | 4.393 |
| `CC(C)CNC(=O)c1cccc(Oc2ccc3nncn3n2)c1` | 1.98 | -0.389 |
| `CC1CN(C(=O)CN(Cc2ccccc2)C2CC2)CCO1` (centres undefined) | 9.038 | 1.504 |
| `Cc1ccc(SCCCNC(=O)c2cn([C@H]3CC[C@@H](N)CC3)nn2)cc1` | 6.494 | 1.944 |
| `CNC(=O)CN(C(=O)c1ccccc1)[C@H]1C[C@H]2CCOC[C@H]2C1` | 0 | -0.4681 |
| `O=S(=O)(NCc1cccnc1OC1CCCC1)N1CCOCC1` | 3.571 | -0.2127 |
| `CCNC(=O)C1CCN(c2cc(-c3ccccc3F)nc3ccnn23)C1` (centres undefined) | 2.809 | -1.795 |
| `CN(C)C(=O)CO[C@H]1CO[C@@]2(CCN(S(C)(=O)=O)C2)C1` | 5.155 | 6.416 |
| `Cc1nc(C2CCCN(C(=O)c3cc(C)sc3C)C2)no1` (centres undefined) | 3.941 | -0.9111 |
| `COc1cc(F)ccc1CC(=O)N1CC[C@H]2C(=O)NCCO[C@H]2C1` | -69.07 | 5.993 |
| `CC(CNC(=O)NCc1ccco1)CC1(C)OCCO1` (centres undefined) | 4.459 | -4.825 |
| `c1ccc(CO[C@H]2CN(c3ncccn3)C[C@@]23CCCO3)cc1` | -0.8571 | 2.141 |
| `CCn1ccnc1C1CCCN(c2nccc3ccccc23)C1` (centres undefined) | -9.662 | 12.9 |
| `O=C(N[C@@H]1CCN(C(=O)c2ccc(F)cc2Cl)C[C@H]1O)c1ccccn1` | 8.939 | 5.739 |
| `CCn1c(N)nc2cc(C(=O)NCCc3ccccc3C)cnc21` | 0 | 3.257 |
| `Cn1cc(N2CCN(c3ccc(C#N)cc3Br)CC2=O)cn1` | 3.704 | 2.841 |
| `Cc1nnc(N2CCCC(C(=O)c3cccc(Cl)c3)C2)o1` (centres undefined) | 6.383 | 4.566 |
| `O=C1CCCN1CCC1CCCCN1C(=O)c1ccc(SCCO)cc1` (centres undefined) | 3.933 | 7.261 |
| `CC(NC(=O)NCC1(c2ccc(Cl)cc2)CC1)c1nncn1C` (centres undefined) | 5.78 | 2.033 |

The first 7 entries again:

With COC(=O)C(C)(C)C(C)(C)NC(=O)Nc1nnc(-c2ccccn2)s1 the screen gave TcHisRS: 5.844%; PfKRS1: 2.748%.
With COC(=O)c1ccccc1S(=O)(=O)NC(=O)c1cccc2c1OCCO2 the screen gave TcHisRS: 0.6135%; PfKRS1: -2.186%.
With O=C(Nc1cc(Cl)ccc1Cl)NC1CCN(C2CCOC2)CC1 (centres undefined) the screen gave TcHisRS: 4.902%; PfKRS1: 2.397%.
With COc1cccc2c1OCCCN(Cc1ncccc1C(=O)O)C2 the screen gave TcHisRS: 4.433%; PfKRS1: 2.969%.
With O=C(NCCO)c1cc(-c2ccc3c(c2)CCO3)n[nH]1 the screen gave TcHisRS: -4.094%; PfKRS1: -0.4364%.
With CN1CCN(C(=O)C2CC=CC2)c2ccccc21 the screen gave TcHisRS: 0.5236%; PfKRS1: -2.329%.
With CNc1ncc2c(n1)CN(c1cccc(OC)c1)C2=O the screen gave TcHisRS: 0%; PfKRS1: 1.134%.